In PubChem BioAssay AID2685 (National Center for Advancing Translational Sciences (NCATS), 2010):
Hit rate of the full screen: of about 320,000 compounds, about 2,100 (0.66%) were called active. The shares of active, inactive and inconclusive entries below differ from those in the screen. Calls follow the shape of the dose curve; as a rule, active = well fitted inhibition curve with a large enough effect in the signal ratio, with a control signal flat (not every such curve was filed as active); inconclusive = small, poorly fitted or top-dose-only effect, or effect the other way, or a change in a side signal; inactive = flat fitted curve, though single readings scatter; the % refers to the signal ratio. Potencies beside an inconclusive call are fits to weak or partial responses and may not hold up.

Assay: qHTS Assay for Lipid Storage Modulators in Drosophila S3 Cells
Conditions: BODIPY lipid droplet fluorescence, 18-24 h, cells fed with added oleic acid; lipid storage change, negative = inhibition: at 46.1 µM (top of the series) unless noted
Summary of the method: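 Laser-scanning cytometry quantifies lipid droplet accumulation (500–530 nm total intensity; droplet/cell object ratio) in oleic acid-fed (400 uM added) Drosophila S3 cells treated with a concentration series. 20 uM Triacsin C defined 100% inhibition.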
% is scaled to controls: 0 for no effect and ±100 for the full control effect; potency is read from the fitted curve at half-maximal effect.

Row | Compound | lipid storage change, negative = inhibition | Potency
1 | O=C(Nc1ccccc1)N(Cc1ccccc1)Cc1ccccc1 | inconclusive: -25.3% | –
2 | O=C(Nc1cccc(Cl)c1N1CCOCC1)c1cccnc1Cl | – | inconclusive: 0.0206 µM [falling, full curve, poor fit]
3 | Nc1nonc1-n1nnc(C(=O)N/N=C/c2cccnc2)c1CSc1ccccc1 | – | inconclusive: 2.59 µM [activator, partial curve]
4 | CC(=O)N1CCN(c2nc(CC(C)C)c3c(c2C#N)CCC3)CC1 | inconclusive: 23.6% | –
5 | O=C(C1=C[C@@H]2[C@H]3C(=O)N(c4ccccc4Cl)C(=O)[C@H]3[C@@H](C(=O)c3ccc(Cl)cc3)N2C=C1)c1ccccc1 | inconclusive: 16.7% | –
6 | CCC(NC(=O)c1cc(COc2ccc(F)cc2Cl)on1)c1ccncc1 (stereo not given) | – | inconclusive: 6.51 µM [activator, single point]
7 | COc1ccc(COC(=O)NC(C(=O)O)c2ccccc2)cc1 (stereo not given) | inconclusive: 101% | –
8 | Cc1ccc(NC(=O)COC(=O)CNC(=O)c2ccc(Cl)cc2Cl)cc1S(=O)(=O)N1CCOCC1 | inconclusive: 30.6% | –
9 | N#Cc1c2n(c3c(N)ncnc13)CCCCC2 | inconclusive: -10.7% | –
10 | COc1cc(C#N)ccc1OCC(=O)N1CCc2ccccc2C1 | – | inconclusive: 3.26 µM [falling, partial curve]
11 | CCOC(=O)C1=C(COC(=O)/C=C/c2ccc(OCC)c(OC)c2)NC(=O)NC1C (stereo not given) | inconclusive | –
12 | CN1C(=O)N(C)c2ccc(C=O)c3cccc1c23 | – | inconclusive: 6.51 µM [activator, partial curve, poor fit]
13 | Cc1ccc(C(=O)NC(=S)NNC(=O)COc2ccccc2C)cc1 | inconclusive: -30.4% | –
14 | Cc1cccc(NC2=C(NCCO)C(=O)c3ccccc3C2=O)c1 | – | inconclusive: 23.1 µM [cytotoxic, partial curve]
15 | CCOc1ccc(S(=O)(=O)Nc2ccncc2)c(C)c1C | inconclusive: -10.6% | –
16 | N#Cc1ccc2ccn(CC(=O)NC3CCCCC3)c2c1 | inconclusive: 16.2% | –
17 | COCCN(C(=O)C1CCN(C(=O)c2ccccc2C)CC1)c1c(N)n(CC(C)C)c(=O)[nH]c1=O | inconclusive: -42.2% | –
18 | Cc1occc1-c1nnc(SCC(=O)Nc2nc3ccccc3s2)o1 | – | inconclusive: 25.9 µM [rising, single point]
19 | c1ccc(Cc2c[nH]c3ccccc23)cc1 | inconclusive: 60.8% | –
20 | CCOc1ccc(C(=O)NC(=S)Nc2cc(C)ccn2)cc1[N+](=O)[O-] | inconclusive: 17.6% | –
21 | COc1ccc(OC)c(-c2nnc(SCC(=O)NC3CCCCC3)o2)c1 | – | inconclusive: 5.17 µM [rising, partial curve]
22 | COc1cccc(NC(=O)CN(C)C(=O)Cc2ccc(Cl)cc2Cl)c1 | inconclusive: -1.61% | –
23 | CCN(C(=N)N=C(N)N)c1ccccc1 | – | inconclusive: 29.1 µM [falling, single point]
24 | Cc1ccc(S(=O)(=O)N(C)C)cc1NC(=O)COC(=O)CNC(=O)c1cccs1 | inconclusive: -64.9% [at 0.0737 µM] | –
25 | c1csc(CCNc2ncnc3sc4c(c23)CCC4)c1 | inconclusive: 65.8% | –

15 of the compounds above, as a markdown table:

| Row | Compound | lipid storage change, negative = inhibition | Potency |
| --- | --- | --- | --- |
| 9 | N#Cc1c2n(c3c(N)ncnc13)CCCCC2 | inconclusive: -10.7% | – |
| 10 | COc1cc(C#N)ccc1OCC(=O)N1CCc2ccccc2C1 | – | inconclusive: 3.26 µM [falling, partial curve] |
| 11 | CCOC(=O)C1=C(COC(=O)/C=C/c2ccc(OCC)c(OC)c2)NC(=O)NC1C (stereo not given) | inconclusive | – |
| 12 | CN1C(=O)N(C)c2ccc(C=O)c3cccc1c23 | – | inconclusive: 6.51 µM [activator, partial curve, poor fit] |
| 13 | Cc1ccc(C(=O)NC(=S)NNC(=O)COc2ccccc2C)cc1 | inconclusive: -30.4% | – |
| 14 | Cc1cccc(NC2=C(NCCO)C(=O)c3ccccc3C2=O)c1 | – | inconclusive: 23.1 µM [cytotoxic, partial curve] |
| 15 | CCOc1ccc(S(=O)(=O)Nc2ccncc2)c(C)c1C | inconclusive: -10.6% | – |
| 16 | N#Cc1ccc2ccn(CC(=O)NC3CCCCC3)c2c1 | inconclusive: 16.2% | – |
| 17 | COCCN(C(=O)C1CCN(C(=O)c2ccccc2C)CC1)c1c(N)n(CC(C)C)c(=O)[nH]c1=O | inconclusive: -42.2% | – |
| 18 | Cc1occc1-c1nnc(SCC(=O)Nc2nc3ccccc3s2)o1 | – | inconclusive: 25.9 µM [rising, single point] |
| 19 | c1ccc(Cc2c[nH]c3ccccc23)cc1 | inconclusive: 60.8% | – |
| 20 | CCOc1ccc(C(=O)NC(=S)Nc2cc(C)ccn2)cc1[N+](=O)[O-] | inconclusive: 17.6% | – |
| 21 | COc1ccc(OC)c(-c2nnc(SCC(=O)NC3CCCCC3)o2)c1 | – | inconclusive: 5.17 µM [rising, partial curve] |
| 22 | COc1cccc(NC(=O)CN(C)C(=O)Cc2ccc(Cl)cc2Cl)c1 | inconclusive: -1.61% | – |
| 23 | CCN(C(=N)N=C(N)N)c1ccccc1 | – | inconclusive: 29.1 µM [falling, single point] |

(list continues)

Row | Compound | lipid storage change, negative = inhibition | Potency
26 | COc1cccc(OC)c1NC(=O)C1CCCN1C(=O)Nc1cccc(Cl)c1 (stereo not given) | – | inconclusive: 29.1 µM [falling, single point]
27 | O=C(Oc1cccnc1)c1ccc(Cl)cc1 | inconclusive: -12.9% | –
28 | Cc1cccc(C(=O)N[C@H](C(=O)OCc2cc(=O)n3c(n2)sc2ccccc23)C(C)C)c1 | inconclusive: -0.477% | –
29 | CC(C)(C)c1nc2ccc([N+](=O)[O-])cc2[nH]1 | inconclusive: -6.64% | –
30 | O=c1oc2ccccc2cc1-c1nc2c(s1)CCc1ccccc1-2 | inconclusive: 13.8% | –
31 | O=C(Nc1csnn1)c1csnn1 | inconclusive: 0.34% | –
32 | CCCCN(C(=O)c1ccccc1OCc1ccc(F)cc1)c1c(N)n(CCC)c(=O)[nH]c1=O | inactive | –
33 | CCOc1ccc(N(CC(=O)N2CCCCCC2)S(=O)(=O)c2ccc(C)cc2)cc1 | – | inconclusive: 29.1 µM [falling, single point]
34 | C/C(N)=C(/C#N)C(=O)COC(=O)CNS(=O)(=O)c1c(F)cccc1F | inconclusive: -11% | –
35 | O=S(=O)(Cc1ccc(Cl)cc1)c1ncc(CO)n1Cc1ccccc1 | inconclusive: -6.1% | –
36 | Cc1ccc(-c2ccc(C(=O)NCc3ccccc3)o2)c2ccccc12 | inconclusive: -1.15% | –
37 | COC(=O)c1ccc(C2=NOC(C)(c3sc(-c4ccc(Cl)cc4)nc3C)C2)cc1 (stereo not given) | inconclusive: 7.8% | –
38 | O=c1c2cc(NC(=S)N3CCCCCC3)ccc2nc2n1CCCCC2 | inconclusive: -16.9% | –
39 | O=S(Cc1ccc(Br)cc1)Cc1nnc(SCc2c(F)cccc2Cl)n1-c1ccccc1 (stereo not given) | inconclusive: 12.8% | –
40 | O=C(Nc1nc2ccccc2c(=O)s1)c1ccc(F)cc1Cl | inconclusive: 5.11% | –
41 | CN(Cc1ccccc1)S(=O)(=O)c1ccc(OCC(=O)Nc2cccc([N+](=O)[O-])c2)cc1 | inactive | –
42 | CC1CCN(S(=O)(=O)c2cnc[nH]2)CC1 | inconclusive: 181% | –
43 | CCN(c1ccc(NC(=O)c2cccc(S(=O)(=O)N3CCN(C)CC3)c2)cc1)C(C)C | – | inconclusive: 29.1 µM [rising, single point]
44 | CCCc1c(NC(=O)Nc2ccc(F)cc2)cnn1-c1ccc(Cl)cc1 | inconclusive: 4.98% | –
45 | COc1ccc(/C=N/NC(=O)CCC(=O)Nc2ccc(Br)cc2)c(OC)c1 | – | inconclusive: 29.1 µM [cytotoxic, single point]
46 | Cc1ccc(S(=O)(=O)N2CCCC2)s1 | inconclusive: 11.6% | –
47 | COc1ccc(C(=O)c2coc(-c3ccccc3C(=O)O)c2C(=O)O)cc1 | inconclusive: -14.8% | –
48 | CCOC(=O)c1sc(NC(=O)c2cc(-c3ccccc3)nc3ccccc23)c(C#N)c1C | – | inconclusive: 10.3 µM [falling, partial curve, poor fit]
49 | O=C(NCc1nnc2n1CCCCC2)c1ccc(Cl)cc1Cl | inconclusive: -82.9% | –
50 | CC(C)Oc1ccc(C(CC(=O)O)NC(=O)c2cccs2)cc1 (stereo not given) | – | inconclusive: 3.66 µM [cytotoxic, full curve]
